In the supplement of paper PMC10849652:
This is one part of the list.

The chains behind the UniProt entries cited, without tags or fusion partners. Where a name states a change or a piece, a line headed by the entry shows the natural chain unless it says otherwise.
UniProt O75600: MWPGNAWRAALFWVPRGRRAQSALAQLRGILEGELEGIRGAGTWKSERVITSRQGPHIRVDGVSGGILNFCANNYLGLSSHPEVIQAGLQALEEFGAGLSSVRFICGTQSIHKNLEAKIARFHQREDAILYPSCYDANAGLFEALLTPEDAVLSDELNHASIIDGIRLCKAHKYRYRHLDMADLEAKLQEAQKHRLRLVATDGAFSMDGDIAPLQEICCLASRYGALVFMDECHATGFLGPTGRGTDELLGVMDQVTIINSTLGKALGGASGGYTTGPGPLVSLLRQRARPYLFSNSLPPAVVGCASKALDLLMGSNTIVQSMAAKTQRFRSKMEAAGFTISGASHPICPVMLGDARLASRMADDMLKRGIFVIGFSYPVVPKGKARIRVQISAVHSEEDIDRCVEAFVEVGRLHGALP
UniProt Q9UN86: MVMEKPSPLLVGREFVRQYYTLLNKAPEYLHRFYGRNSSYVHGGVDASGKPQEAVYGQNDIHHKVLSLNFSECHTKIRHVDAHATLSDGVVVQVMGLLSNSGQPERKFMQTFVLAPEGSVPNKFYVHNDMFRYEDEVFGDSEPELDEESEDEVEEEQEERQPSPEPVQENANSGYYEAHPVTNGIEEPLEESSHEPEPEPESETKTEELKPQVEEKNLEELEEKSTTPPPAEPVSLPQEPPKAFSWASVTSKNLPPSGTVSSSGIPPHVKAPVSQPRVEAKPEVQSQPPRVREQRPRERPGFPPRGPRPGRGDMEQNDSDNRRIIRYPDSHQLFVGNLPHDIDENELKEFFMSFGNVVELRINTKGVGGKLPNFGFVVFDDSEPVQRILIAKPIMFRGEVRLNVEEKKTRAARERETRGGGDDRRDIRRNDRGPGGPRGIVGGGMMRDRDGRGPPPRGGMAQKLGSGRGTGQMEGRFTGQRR
UniProt Q86SF2: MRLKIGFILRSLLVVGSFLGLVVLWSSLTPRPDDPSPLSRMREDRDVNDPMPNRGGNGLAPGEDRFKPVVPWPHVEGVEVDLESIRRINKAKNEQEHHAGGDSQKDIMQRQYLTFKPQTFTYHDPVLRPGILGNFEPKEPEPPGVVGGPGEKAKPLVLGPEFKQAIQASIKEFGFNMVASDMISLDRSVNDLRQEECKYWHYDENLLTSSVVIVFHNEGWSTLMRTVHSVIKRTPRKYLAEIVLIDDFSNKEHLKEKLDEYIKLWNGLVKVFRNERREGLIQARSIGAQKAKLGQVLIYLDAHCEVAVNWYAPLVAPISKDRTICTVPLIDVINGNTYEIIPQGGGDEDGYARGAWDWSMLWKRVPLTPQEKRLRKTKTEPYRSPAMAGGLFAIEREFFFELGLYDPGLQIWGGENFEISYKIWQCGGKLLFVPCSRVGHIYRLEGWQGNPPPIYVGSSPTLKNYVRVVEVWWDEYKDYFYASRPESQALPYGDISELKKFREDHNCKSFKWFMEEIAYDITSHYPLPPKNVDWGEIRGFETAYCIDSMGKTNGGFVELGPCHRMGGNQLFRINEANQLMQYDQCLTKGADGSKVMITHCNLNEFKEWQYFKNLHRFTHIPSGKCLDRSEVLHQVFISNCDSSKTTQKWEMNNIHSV
UniProt Q9H2C0: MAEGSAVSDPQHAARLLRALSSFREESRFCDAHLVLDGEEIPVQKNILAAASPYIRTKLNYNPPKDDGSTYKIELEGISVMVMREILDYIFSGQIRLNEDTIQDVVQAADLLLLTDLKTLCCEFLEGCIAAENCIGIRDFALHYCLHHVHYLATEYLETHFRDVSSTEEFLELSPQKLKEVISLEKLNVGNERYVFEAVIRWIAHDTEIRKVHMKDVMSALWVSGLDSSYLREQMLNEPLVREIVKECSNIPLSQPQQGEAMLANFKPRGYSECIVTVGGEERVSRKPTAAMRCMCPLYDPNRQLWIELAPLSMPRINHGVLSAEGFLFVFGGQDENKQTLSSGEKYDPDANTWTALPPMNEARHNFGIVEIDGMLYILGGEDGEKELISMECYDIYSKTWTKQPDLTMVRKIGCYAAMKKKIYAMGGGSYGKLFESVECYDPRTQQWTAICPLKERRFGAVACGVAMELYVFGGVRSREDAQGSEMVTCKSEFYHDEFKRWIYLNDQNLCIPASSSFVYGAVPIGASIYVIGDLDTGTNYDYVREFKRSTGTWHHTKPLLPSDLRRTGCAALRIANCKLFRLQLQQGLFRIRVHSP
UniProt Q9NZ52: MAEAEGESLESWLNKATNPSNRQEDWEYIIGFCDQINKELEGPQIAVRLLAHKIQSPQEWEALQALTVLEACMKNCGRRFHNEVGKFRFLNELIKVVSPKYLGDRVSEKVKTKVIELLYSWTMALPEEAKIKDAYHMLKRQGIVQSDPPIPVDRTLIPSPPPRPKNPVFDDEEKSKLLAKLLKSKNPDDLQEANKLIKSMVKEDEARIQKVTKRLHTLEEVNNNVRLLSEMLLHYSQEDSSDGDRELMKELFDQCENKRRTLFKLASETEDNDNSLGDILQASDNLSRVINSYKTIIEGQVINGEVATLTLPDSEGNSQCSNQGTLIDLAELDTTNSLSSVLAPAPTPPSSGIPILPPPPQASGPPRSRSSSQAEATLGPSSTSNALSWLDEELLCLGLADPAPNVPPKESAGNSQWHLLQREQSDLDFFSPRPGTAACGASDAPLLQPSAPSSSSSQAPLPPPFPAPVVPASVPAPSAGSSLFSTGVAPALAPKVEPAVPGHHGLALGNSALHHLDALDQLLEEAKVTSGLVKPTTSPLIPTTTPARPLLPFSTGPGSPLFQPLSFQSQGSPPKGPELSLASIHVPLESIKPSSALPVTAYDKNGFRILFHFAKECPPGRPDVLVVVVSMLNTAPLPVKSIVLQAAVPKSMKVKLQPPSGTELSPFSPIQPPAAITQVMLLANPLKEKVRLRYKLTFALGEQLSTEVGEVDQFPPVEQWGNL
UniProt P30047: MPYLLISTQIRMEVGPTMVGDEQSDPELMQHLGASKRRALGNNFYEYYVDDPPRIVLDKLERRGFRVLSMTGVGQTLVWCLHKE
UniProt P48506: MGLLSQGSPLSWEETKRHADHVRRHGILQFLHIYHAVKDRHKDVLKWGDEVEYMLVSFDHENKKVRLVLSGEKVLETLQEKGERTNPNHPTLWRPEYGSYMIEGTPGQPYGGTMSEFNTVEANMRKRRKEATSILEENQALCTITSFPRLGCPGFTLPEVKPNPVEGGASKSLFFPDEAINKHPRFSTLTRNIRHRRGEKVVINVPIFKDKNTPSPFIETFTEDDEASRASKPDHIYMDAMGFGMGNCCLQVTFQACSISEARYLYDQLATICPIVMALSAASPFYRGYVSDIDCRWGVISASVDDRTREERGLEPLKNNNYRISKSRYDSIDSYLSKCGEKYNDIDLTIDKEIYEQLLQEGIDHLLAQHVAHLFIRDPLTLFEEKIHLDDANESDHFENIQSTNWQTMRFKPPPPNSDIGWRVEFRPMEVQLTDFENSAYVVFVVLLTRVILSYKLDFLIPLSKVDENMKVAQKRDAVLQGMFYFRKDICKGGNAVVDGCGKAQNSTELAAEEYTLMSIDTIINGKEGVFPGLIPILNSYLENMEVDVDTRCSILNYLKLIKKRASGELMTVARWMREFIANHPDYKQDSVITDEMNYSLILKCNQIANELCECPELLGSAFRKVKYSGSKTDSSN
UniProt Q6NT46: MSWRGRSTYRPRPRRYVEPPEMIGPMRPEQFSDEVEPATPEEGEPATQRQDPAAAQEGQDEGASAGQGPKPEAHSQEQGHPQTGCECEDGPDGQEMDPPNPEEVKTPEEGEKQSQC
UniProt P51116, whole entry, looked up: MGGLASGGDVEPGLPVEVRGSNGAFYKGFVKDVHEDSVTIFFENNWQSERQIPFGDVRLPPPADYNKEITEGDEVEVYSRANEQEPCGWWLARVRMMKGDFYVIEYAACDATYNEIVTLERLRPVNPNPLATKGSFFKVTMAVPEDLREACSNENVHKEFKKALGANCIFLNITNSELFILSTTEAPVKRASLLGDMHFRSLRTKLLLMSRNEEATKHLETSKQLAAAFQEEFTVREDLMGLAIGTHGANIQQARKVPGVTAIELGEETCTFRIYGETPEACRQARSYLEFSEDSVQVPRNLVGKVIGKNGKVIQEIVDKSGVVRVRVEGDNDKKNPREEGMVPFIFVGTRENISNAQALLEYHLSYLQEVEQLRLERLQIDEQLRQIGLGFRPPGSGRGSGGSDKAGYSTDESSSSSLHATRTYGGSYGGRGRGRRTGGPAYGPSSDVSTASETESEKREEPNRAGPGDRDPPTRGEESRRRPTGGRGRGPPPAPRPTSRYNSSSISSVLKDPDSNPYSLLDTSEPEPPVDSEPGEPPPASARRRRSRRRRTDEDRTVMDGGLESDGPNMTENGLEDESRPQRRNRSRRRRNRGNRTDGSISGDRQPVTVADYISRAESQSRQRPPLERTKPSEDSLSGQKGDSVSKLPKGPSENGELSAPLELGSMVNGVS
UniProt Q13283, whole entry, looked up: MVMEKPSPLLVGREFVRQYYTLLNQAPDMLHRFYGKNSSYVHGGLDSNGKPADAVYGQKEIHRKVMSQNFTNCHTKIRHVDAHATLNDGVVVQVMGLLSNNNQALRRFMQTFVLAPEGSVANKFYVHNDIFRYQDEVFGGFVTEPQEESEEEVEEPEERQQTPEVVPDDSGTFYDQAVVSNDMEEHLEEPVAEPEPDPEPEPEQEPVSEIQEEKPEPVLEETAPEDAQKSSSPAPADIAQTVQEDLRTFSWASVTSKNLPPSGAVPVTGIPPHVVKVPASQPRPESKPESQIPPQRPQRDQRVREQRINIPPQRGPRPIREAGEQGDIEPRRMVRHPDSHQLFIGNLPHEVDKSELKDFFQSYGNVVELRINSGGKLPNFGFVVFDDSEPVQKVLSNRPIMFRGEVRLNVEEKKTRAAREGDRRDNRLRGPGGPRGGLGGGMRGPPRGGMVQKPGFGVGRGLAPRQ
UniProt O75223: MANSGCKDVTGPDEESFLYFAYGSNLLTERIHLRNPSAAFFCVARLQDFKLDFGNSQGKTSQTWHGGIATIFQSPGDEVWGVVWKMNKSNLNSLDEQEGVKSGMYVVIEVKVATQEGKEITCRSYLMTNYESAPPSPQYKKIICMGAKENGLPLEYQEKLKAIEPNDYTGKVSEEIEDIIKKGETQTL
UniProt Q14376: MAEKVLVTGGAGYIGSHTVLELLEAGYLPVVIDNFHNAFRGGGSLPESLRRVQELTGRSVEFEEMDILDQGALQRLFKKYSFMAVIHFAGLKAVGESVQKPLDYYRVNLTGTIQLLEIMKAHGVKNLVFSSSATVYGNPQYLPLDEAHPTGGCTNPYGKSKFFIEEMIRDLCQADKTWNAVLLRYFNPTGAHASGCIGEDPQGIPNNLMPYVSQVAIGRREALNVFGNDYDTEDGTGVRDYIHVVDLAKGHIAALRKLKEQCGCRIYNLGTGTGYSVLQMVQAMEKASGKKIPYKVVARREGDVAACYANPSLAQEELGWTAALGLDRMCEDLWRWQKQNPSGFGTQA
UniProt P34059: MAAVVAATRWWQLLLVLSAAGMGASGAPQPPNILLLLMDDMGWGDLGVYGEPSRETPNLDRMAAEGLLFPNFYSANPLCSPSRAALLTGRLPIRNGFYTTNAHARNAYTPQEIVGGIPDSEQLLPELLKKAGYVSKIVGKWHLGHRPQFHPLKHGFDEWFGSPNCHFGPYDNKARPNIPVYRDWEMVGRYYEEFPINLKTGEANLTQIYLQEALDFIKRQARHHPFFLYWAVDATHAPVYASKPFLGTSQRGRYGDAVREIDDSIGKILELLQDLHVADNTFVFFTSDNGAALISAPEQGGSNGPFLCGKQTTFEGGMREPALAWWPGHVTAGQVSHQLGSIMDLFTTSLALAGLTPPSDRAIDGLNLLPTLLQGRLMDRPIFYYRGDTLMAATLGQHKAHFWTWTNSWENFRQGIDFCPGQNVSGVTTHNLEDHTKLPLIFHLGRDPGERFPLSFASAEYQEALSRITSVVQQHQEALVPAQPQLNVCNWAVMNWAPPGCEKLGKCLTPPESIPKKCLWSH
UniProt Q9H3K2: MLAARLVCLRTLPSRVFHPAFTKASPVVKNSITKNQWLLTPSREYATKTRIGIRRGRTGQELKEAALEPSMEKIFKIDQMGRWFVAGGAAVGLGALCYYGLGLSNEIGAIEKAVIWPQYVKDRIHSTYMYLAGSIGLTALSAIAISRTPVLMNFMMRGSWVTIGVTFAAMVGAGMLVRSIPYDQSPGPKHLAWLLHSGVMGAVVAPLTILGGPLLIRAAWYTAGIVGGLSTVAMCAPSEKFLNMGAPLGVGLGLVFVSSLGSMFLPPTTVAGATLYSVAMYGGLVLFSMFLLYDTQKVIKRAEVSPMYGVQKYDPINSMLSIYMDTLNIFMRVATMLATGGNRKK
UniProt Q96C23: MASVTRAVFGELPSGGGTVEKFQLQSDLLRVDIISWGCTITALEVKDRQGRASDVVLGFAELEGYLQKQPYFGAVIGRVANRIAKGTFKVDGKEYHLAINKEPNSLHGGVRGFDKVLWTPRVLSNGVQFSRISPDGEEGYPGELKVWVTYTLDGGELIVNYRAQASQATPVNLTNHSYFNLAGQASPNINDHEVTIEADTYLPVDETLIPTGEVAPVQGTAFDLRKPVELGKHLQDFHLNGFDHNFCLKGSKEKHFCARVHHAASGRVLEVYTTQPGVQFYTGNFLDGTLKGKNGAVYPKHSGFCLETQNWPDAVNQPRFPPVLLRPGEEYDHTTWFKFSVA

Compound: Cc1ncc(-c2ccnc(Nc3ccc(S(C)(=O)=O)cc3)n2)n1C(C)C
Assay: log2 fold change, soluble protein after heating vs DMSO (PISA); higher = thermal stabilisation; K562 cells, 10 uM, 30 min; active = over 0.2 and 3.5 SD of the protein, either way, in both replicates (recomputed)
Outline: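 K562 cells at 2×10^6 cells/mL were exposed to 10 μM compound for 30 min, then aliquots were heated for 3 min across 48°C-58°C, pooled, and extracted in PBS containing 0.5% NP-40 at 4°C. The supernatant after 21,000xg for 90 min was taken as soluble protein and measured by TMTpro 16plex LC-MS/MS with channel sums equalised. Thermal stability is reported relative to control samples, with values from duplicates. Fold changes are given on a log2 scale.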

log2 fold change, inactive:
GCAT isoform 2 (UniProt O75600) -0.027
GAR1 (UniProt Q9NY12) 0.016
GATAD2A isoform 3 (UniProt Q86YP4) -0.075
FXR1 (UniProt P51114) -0.029
FYCO1 isoform 4 (UniProt Q9BQS8) 0.075
G3BP2 (UniProt Q9UN86) 0.021
GALNT7 (UniProt Q86SF2) 0.017
GAN (UniProt Q9H2C0) -0.07
FRG1 (UniProt Q14331) 0.02
GGA3 (UniProt Q9NZ52) 0.015
GCHFR (UniProt P30047) -0.111
FUS (UniProt P35637) 0.034
GALK2 (UniProt Q01415) -0.024
GAMT (UniProt Q14353) -0.03
FTH1 (UniProt P02794) -0.045
GCLC (UniProt P48506) 0.003
FUBP1 (UniProt Q96AE4) 0.042
GAGE2A (UniProt Q6NT46) 0.031
FXR2 (UniProt P51116) 0.001
G3BP1 (UniProt Q13283) 0.017
GEMIN4 (UniProt P57678) -0.027
GGCT (UniProt O75223) -0.004
FTSJ1 (UniProt Q9UET6) -0.014
GALNT5 (UniProt Q7Z7M9) 0
GANAB isoform 2 (UniProt Q14697) -0.03
GGA1 isoform 6 (UniProt Q9UJY5) -0.01
GGH (UniProt Q92820) -0.035
GALE (UniProt Q14376) 0
GALNS (UniProt P34059) 0.108
GHITM (UniProt Q9H3K2) 0.002
G6PD isoform 2 (UniProt P11413) -0.005
GALM (UniProt Q96C23) -0.009
GFM1 (UniProt Q96RP9) -0.06

Copied from above for reference:
log2 fold change, inactive:
FRG1 (UniProt Q14331) 0.02
GGA3 (UniProt Q9NZ52) 0.015
